The other results are listed elsewhere or left out. For some of these results: The source does not settle which construct or isoform was used.

Sequences of proteins named here, by UniProt entry; tags and fusion partners are left off.
UniProt P21579, whole entry: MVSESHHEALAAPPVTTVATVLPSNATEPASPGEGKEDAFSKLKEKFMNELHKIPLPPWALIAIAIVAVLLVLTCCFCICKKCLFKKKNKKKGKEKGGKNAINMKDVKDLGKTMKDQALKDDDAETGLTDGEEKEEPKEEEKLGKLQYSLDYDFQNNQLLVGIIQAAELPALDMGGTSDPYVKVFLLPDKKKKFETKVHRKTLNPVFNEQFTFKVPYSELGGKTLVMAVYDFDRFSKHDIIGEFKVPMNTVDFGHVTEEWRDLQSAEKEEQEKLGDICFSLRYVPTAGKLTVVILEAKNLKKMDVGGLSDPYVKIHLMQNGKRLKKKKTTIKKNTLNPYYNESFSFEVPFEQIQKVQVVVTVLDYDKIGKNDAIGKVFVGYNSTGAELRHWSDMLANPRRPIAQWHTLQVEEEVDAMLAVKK

Test systems include SYNGR4 (human); Secretagogin (human); Selenoprotein P (human); Septin-2 (human).
Holding throughout (assay): protein microarray (ProtoArray v5.0), streptavidin-Alexa Fluor 647
Common to all, as to settings: 3'-biotin; 20 mM Tris (pH 7.5), 5 mM MgCl2, 100 mM KCl, 0.1% Tween-20, A/T-rich and random oligonucleotide blockers; temperature not stated; high values mean tight binding

A further test addresses SYT1 (UniProt P21579).
In another test the target is T1, SYTL2 (UniProt Q9HCH5).
T1 sequence: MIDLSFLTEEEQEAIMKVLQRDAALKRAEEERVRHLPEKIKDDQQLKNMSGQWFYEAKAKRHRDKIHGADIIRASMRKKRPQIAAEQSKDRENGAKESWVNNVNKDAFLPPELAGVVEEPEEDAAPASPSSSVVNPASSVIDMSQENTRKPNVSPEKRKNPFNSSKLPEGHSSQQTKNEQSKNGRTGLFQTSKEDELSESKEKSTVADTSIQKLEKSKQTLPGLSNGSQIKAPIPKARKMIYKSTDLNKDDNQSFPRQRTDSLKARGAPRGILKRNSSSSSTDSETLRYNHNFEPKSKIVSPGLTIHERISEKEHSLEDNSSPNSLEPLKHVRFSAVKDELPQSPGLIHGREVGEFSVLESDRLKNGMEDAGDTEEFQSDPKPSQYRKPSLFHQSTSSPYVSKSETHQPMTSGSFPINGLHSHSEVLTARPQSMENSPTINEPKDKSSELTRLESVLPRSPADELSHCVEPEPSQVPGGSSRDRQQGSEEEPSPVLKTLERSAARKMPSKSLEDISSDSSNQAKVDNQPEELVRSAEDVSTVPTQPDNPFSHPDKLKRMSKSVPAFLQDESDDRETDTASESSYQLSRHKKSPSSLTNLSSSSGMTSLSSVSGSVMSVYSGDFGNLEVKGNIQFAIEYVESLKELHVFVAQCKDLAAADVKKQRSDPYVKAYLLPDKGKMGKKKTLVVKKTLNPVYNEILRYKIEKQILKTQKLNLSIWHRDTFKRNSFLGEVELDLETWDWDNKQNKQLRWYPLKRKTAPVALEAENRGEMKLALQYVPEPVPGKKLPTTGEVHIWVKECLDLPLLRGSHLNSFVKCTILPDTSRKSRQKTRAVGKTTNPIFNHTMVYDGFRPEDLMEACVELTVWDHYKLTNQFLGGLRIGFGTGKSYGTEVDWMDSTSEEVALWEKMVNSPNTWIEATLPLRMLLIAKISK

Test [1] deals with Scavenger receptor cysteine-rich domain-containing protein LOC284297 (human).
The subject of test [2] is Selenium-binding protein 1 (human).
Test [3] has as its system Serine/threonine-protein kinase 12 (human).
In test [4] the test system is Serine/threonine-protein kinase MRCK alpha (human).

Regarding “GGTGACAGGGGTATGGGGAGGGG [G4-2 biotinylated (Ct1)]”, the binding signal in the test with SYNGR4 (human) was -0.377 z-score; with SYT1, 4.95 z-score; in the test with SYTL2, 4.04 z-score; in test [1], -0.398 z-score; in the test on Secretagogin (human), -0.401 z-score; in [2], -0.375 z-score. In addition, the binding signal is -0.375 z-score in the test with Selenoprotein P (human), -0.39 z-score in the test with Septin-2 (human), 6.15 z-score in [3] and -0.397 z-score in test [4].

The record behind these values is article PMC5996148.
